Results are given in words; binding and its absence hold for the method and conditions named. In cells and extracts the contact can be indirect. Some binding calls cover weakened binding; strength is not graded here.
T1: BATF (human (endogenous in Th17 cells from cord blood CD4+ T cells)) (UniProt Q16520)
T1 sequence: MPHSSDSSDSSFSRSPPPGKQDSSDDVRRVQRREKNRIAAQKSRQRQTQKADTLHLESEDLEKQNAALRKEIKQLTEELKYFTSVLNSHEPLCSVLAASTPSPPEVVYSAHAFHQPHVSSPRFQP

Sequences of proteins named here, by UniProt entry; tags and fusion partners are left off.
UniProt P05412: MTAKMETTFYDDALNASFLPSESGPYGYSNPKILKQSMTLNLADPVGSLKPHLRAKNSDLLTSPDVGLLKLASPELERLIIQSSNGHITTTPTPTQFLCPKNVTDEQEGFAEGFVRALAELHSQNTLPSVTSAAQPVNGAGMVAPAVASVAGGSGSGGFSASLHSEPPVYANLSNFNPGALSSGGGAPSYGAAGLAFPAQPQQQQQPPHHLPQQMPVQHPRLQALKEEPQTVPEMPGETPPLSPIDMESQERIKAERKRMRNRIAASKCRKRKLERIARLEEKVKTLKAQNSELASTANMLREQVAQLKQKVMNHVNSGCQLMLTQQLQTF
UniProt Q01196: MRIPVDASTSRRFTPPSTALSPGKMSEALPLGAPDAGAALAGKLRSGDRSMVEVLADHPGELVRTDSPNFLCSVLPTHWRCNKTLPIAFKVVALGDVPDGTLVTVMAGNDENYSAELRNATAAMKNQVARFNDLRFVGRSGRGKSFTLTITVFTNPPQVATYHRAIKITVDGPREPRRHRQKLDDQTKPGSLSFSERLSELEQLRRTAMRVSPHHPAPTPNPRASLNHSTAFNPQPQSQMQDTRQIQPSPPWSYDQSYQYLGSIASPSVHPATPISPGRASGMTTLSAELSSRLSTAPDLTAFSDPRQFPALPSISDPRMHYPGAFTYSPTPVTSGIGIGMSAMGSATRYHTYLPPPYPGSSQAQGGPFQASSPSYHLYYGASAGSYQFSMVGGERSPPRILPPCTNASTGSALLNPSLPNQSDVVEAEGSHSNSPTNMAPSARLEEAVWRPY
UniProt P40763: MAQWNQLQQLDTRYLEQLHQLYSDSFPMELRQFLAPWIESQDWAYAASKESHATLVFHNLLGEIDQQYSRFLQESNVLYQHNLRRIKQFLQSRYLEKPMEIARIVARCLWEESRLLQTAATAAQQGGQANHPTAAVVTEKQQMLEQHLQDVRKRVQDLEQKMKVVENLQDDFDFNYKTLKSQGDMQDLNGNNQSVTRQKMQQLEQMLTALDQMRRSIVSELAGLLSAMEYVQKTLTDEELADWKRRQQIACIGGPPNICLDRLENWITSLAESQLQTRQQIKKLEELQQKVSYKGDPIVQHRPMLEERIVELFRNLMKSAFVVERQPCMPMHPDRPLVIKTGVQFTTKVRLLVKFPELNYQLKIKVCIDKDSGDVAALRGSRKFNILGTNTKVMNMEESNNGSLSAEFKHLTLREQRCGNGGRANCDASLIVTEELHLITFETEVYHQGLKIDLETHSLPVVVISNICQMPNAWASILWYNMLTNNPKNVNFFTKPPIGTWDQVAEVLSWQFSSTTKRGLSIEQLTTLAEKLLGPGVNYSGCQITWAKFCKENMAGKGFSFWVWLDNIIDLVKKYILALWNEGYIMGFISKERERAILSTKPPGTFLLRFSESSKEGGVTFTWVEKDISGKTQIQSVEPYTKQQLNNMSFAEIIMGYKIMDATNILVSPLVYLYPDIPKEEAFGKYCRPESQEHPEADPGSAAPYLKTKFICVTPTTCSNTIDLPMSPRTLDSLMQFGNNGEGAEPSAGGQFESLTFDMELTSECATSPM


Molecular target: T1, BATF (human (endogenous in Th17 cells from cord blood CD4+ T cells))
Test: co-IP

| binding | Molecule |
| --- | --- |
| binds | JUN (from UniProt P05412 1-331) |
| binds | RUNX1 (from UniProt Q01196 1-453) |
| no binding | STAT3 (from UniProt P40763 1-770) |
| no binding | IRF4 (protein, UniProt Q15306 1-451) MNLEGGGRGGEFGMSAVSCGNGKLRQWLIDQIDSGKYPGLVWENEEKSIFRIPWKHAGKQDYNREEDAALFKAWALFKGKFREGIDKPDPPTWKTRLRCALNKSNDFEELVERSQLDISDPYKVYRIVPEGAKKGAKQLTLEDPQMSMSHPYTMTTPYPSLPAQQVHNYMMPPLDRSWRDYVPDQPHPEIPYQCPMTFGPRGHHWQGPACENGCQVTGTFYACAPPESQAPGVPTEPSIRSAEALAFSDCRLHICLYYREILVKELTTSSPEGCRISHGHTYDASNLDQVLFPYPEDNGQRKNIEKLLSHLERGVVLWMAPDGLYAKRLCQSRIYWDGPLALCNDRPNKLERDQTCKLFDTQQFLSELQAFAHHGRSLPRFQVTLCFGEEFPDPQRQRKLITAHVEPLLARQLYYFAQQNSGHFLRGYDLPEHISNPEDYHRSIRHSSIQE |
| binds | JUNB (protein, UniProt P17275 1-347) MCTKMEQPFYHDDSYTATGYGRAPGGLSLHDYKLLKPSLAVNLADPYRSLKAPGARGPGPEGGGGGSYFSGQGSDTGASLKLASSELERLIVPNSNGVITTTPTPPGQYFYPRGGGSGGGAGGAGGGVTEEQEGFADGFVKALDDLHKMNHVTPPNVSLGATGGPPAGPGGVYAGPEPPPVYTNLSSYSPASASSGGAGAAVGTGSSYPTTTISYLPHAPPFAGGHPAQLGLGRGASTFKEEPQTVPEARSRDATPPVSPINMEDQERIKVERKRLRNRLAATKCRKRKLERIARLEDKVKTLKAENAGLSSTAGLLREQVAQLKQKVMTHVSNGCQLLLGVKGHAF |

Source: article doi:10.1101/2021.04.26.441472
